Among the data in the supplement of paper PMC12819154, “High-throughput peptide-centric local stability assay extends protein–ligand identification to membrane proteins, tissues and bacteria” (Nature Structural & Molecular Biology, 2025) are log2 fold change values, retold here.

Protein sequences, listed by entry. Tags and fused reporters are not part of them. Lines headed by an entry give the natural chain unless they say otherwise; changes in a name come on top.
UniProt P51825: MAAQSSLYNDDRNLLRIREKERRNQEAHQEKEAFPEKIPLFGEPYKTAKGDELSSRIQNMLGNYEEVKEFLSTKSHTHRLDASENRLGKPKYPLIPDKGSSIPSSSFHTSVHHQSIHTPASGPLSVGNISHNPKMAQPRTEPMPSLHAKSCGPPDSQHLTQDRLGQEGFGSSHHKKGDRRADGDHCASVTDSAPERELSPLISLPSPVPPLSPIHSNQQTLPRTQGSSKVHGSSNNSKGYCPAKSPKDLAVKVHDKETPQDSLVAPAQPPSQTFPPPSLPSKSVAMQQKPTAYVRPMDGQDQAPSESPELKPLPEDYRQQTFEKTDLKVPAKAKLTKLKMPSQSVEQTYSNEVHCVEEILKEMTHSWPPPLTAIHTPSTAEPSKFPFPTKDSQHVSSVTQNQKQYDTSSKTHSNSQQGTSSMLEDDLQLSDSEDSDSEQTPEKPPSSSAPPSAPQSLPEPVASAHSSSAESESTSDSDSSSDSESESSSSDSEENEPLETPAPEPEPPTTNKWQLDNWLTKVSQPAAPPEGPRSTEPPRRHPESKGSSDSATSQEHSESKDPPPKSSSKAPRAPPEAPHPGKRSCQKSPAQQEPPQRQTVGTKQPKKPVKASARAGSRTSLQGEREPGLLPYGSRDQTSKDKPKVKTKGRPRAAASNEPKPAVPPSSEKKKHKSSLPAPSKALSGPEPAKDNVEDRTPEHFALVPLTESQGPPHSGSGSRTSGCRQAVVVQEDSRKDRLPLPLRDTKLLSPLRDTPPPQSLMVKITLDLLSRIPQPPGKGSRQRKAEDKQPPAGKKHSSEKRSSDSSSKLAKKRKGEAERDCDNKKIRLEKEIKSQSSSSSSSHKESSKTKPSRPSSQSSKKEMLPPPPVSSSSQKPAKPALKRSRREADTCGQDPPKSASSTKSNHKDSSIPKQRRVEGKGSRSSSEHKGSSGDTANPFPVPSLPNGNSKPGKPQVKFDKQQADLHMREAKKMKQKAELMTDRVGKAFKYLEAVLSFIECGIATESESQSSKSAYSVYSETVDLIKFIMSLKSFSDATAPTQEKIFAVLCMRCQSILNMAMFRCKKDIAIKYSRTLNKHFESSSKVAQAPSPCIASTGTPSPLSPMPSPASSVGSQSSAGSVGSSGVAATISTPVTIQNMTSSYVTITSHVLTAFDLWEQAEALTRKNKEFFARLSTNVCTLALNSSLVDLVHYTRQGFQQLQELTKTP
UniProt P47813, whole entry: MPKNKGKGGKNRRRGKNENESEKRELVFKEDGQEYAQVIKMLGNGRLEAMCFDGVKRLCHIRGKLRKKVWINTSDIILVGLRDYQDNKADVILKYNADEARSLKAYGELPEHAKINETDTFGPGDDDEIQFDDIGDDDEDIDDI
UniProt P53355: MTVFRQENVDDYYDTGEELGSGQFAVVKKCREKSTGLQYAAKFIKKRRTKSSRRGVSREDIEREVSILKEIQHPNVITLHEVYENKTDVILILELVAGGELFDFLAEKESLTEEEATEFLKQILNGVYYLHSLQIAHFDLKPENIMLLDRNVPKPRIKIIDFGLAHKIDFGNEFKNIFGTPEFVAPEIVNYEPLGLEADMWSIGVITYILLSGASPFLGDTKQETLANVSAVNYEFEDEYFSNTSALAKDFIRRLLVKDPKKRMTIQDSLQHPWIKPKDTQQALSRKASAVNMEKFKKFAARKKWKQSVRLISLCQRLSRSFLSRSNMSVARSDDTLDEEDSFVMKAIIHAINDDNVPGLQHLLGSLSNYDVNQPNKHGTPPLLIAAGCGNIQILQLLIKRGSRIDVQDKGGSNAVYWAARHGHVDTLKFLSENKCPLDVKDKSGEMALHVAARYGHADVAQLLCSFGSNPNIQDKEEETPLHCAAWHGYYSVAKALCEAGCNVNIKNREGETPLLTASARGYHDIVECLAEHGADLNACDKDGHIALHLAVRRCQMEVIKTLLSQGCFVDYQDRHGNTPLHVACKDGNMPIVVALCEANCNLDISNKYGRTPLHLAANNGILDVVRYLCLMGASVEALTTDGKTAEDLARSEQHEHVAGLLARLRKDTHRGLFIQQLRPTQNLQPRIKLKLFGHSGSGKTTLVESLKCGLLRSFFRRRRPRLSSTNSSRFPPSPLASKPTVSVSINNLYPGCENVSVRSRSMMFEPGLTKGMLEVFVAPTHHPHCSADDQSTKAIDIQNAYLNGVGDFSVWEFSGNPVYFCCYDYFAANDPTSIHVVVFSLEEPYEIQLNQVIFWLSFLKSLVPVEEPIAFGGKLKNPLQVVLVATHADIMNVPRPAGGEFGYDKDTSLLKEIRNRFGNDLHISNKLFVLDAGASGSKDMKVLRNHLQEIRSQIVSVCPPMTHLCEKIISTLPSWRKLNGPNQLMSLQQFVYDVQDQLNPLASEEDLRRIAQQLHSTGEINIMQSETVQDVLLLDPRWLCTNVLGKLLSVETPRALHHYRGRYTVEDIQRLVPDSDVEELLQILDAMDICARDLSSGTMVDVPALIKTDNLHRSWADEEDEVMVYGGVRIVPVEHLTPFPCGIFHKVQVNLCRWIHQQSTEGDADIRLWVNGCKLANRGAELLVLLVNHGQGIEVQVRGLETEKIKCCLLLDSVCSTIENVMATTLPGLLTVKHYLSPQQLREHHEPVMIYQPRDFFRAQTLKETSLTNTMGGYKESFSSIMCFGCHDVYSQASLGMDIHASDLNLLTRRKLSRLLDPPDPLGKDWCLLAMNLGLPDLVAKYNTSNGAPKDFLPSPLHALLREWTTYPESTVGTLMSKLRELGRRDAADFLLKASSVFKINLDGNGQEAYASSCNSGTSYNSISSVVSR
UniProt P52209: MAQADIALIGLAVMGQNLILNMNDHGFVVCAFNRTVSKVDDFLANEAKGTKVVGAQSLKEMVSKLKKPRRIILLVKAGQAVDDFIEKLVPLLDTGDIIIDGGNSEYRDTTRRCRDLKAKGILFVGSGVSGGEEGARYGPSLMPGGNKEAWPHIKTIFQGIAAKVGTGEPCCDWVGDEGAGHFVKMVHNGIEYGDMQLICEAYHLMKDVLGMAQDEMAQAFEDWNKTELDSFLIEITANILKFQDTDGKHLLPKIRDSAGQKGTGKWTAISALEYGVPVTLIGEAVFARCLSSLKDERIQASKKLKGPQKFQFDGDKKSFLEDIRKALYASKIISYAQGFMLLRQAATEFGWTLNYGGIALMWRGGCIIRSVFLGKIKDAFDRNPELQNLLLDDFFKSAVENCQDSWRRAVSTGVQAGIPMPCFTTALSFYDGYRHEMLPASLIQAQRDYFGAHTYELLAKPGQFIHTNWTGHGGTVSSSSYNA
UniProt P50990: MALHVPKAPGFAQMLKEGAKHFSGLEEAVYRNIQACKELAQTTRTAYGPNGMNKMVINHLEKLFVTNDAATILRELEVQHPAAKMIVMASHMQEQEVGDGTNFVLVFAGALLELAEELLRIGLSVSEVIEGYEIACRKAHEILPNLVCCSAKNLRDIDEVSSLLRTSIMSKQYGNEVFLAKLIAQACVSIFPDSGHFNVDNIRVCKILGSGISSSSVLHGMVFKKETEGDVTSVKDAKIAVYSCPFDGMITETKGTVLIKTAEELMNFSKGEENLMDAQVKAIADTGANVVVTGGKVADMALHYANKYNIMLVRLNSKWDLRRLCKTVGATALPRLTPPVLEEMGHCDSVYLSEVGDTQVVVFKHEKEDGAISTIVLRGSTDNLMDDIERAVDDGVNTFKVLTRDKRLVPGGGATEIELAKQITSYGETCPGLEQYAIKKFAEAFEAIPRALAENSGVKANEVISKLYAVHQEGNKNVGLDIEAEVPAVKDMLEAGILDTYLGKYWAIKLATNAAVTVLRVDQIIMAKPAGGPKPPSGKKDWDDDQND
UniProt P53367: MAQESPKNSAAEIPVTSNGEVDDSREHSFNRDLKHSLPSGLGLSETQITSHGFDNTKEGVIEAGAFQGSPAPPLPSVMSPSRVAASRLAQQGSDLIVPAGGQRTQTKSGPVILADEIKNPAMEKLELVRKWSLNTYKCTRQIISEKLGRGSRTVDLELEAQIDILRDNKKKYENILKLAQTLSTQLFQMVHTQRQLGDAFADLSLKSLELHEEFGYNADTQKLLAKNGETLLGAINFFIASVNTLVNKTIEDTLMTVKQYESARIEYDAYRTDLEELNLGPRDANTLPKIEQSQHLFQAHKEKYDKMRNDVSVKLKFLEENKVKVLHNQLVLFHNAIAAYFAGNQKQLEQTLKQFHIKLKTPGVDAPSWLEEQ
UniProt P49770: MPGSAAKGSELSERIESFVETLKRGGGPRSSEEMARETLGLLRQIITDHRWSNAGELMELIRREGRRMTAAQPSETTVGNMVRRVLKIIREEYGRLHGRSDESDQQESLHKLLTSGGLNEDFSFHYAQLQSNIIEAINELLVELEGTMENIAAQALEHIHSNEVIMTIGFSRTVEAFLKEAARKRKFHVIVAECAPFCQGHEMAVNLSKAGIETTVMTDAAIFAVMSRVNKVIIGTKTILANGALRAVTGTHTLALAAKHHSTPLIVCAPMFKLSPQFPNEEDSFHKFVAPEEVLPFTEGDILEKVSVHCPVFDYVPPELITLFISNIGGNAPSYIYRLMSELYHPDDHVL
UniProt P53041: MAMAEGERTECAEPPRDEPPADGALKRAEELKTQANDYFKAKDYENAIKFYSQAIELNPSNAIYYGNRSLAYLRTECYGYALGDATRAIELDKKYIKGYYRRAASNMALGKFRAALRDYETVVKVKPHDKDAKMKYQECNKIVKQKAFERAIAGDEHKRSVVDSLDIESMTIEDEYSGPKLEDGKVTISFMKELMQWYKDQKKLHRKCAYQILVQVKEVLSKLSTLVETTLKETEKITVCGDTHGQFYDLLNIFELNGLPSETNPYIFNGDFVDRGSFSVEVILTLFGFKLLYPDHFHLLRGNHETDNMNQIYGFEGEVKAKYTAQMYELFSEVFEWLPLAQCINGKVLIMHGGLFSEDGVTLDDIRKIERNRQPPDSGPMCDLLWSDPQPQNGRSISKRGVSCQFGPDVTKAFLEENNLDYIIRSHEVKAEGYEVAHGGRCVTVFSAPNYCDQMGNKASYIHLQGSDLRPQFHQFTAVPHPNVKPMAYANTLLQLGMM
UniProt P50395: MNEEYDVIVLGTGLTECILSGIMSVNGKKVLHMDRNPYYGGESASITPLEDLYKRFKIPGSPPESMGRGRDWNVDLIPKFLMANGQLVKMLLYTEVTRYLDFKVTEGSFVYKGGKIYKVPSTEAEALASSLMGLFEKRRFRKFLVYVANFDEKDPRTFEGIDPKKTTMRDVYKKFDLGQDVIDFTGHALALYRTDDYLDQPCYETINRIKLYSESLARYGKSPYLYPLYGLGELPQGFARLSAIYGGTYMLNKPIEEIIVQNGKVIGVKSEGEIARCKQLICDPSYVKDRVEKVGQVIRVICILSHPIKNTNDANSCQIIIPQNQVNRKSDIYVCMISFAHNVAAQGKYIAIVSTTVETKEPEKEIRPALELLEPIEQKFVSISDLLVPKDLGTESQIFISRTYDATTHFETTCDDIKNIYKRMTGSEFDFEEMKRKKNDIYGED
UniProt P49903: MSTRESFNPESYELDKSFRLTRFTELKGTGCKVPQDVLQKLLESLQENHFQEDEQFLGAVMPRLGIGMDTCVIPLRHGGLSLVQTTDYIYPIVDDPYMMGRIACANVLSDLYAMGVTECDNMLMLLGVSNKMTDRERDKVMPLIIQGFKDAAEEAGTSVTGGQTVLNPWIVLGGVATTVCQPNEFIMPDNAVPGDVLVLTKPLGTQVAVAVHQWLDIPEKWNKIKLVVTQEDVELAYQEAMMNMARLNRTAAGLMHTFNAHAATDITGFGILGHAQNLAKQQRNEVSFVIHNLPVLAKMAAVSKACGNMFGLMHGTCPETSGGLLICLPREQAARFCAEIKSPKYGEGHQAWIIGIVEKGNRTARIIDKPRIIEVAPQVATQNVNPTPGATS
UniProt P51159: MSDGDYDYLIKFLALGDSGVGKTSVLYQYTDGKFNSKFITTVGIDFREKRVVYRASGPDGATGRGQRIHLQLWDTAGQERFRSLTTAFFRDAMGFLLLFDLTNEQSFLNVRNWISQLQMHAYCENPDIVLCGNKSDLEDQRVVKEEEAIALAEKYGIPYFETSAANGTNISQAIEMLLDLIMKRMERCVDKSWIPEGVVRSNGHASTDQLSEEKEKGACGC
UniProt P49441: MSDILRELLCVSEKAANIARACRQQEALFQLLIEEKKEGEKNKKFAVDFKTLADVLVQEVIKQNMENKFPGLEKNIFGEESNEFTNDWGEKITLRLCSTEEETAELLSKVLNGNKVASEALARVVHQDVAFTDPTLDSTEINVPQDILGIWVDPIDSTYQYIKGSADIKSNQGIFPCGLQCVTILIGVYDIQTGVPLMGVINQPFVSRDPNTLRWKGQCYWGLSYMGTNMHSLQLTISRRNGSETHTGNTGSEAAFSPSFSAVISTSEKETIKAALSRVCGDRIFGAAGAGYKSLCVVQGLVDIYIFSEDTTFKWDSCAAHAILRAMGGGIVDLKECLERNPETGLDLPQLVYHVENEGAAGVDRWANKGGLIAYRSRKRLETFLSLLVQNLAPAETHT

The list shows a part of the results. Most entries show no effect beyond the scatter of the controls.

Compound in this assay: CN[C@@H]1C[C@H]2O[C@@](C)([C@@H]1OC)n1c3ccccc3c3c4c(c5c6ccccc6n2c5c31)C(=O)NC4 [staurosporine]
The experiment in a line: log2 fold change of tryptic peptide abundance, ligand vs vehicle (limited proteolysis) (log2 ratio); higher = more trypsin-susceptible (destabilized). Conditions: ligand concentration: 20 uM; sample: K562 cleared lysate; digestion: 4 min, 22 C (HT-PELSA RT4min, Orbitrap Astral).
As to “AFF1 (peptide sequence: ITLDLLSR, peptide start residue: 765) (UniProt P51825)”, the log2 fold change was found to be 0.636. Take “STK19 (peptide sequence: DSEITHLVNAGVLTVR, peptide start residue: 268) (UniProt P49842)”: the log2 fold change stood at 0.291.

For the target “SEC24C (peptide sequence: LRIHNLALNCCTQLADLYR, peptide start residue: 822) (UniProt P53992)”, the log2 fold change was -0.658. In the case of “NDUFA8 (peptide sequence: TDRPLPENPYHSR, peptide start residue: 133) (UniProt P51970)” it was -0.18; in that of “NUP98 (peptide sequence: KAEVTLDGVWPTDKTSR, peptide start residue: 818) (UniProt P52948)”, 0.168. In the case of “UniProt P47813 (peptide sequence: MLGNGRLEAMCFDGVK, peptide start residue: 41)” it was -0.142; in that of “ACADVL (peptide sequence: IFEGTNDILR, peptide start residue: 460) (UniProt P49748)”, 0.605. With “DAPK1 (peptide sequence: LISLCQR, peptide start residue: 311) (UniProt P53355)”, the log2 fold change is -0.275.

In the case of “PGD (peptide sequence: CLSSLKDER, peptide start residue: 289) (UniProt P52209)”, the log2 fold change was determined as 0.492. In the case of “CCT8 (peptide sequence: MVINHLEKLFVTNDAATILR, peptide start residue: 55) (UniProt P50990)” it was 0.954; in that of “DNA2 (peptide sequence: FVLVGDHQQLPPLVLNR, peptide start residue: 782) (UniProt P51530)”, -0.547. Then “THOP1 (peptide sequence: YGHAACFGLQPGCLR, peptide start residue: 422) (UniProt P52888)”, with -0.579; and “IRAK1 (peptide sequence: ENADLEWTAVK, peptide start residue: 243) (UniProt P51617)”, with -0.433.

With “BRCC3 (peptide sequence: VVGWYHSHPHITVWPSHVDVR, peptide start residue: 117) (UniProt P46736)”, the log2 fold change was -0.602. In the case of “VPS41 (peptide sequence: DSTHCPLEK, peptide start residue: 634) (UniProt P49754)” it was 0.692. In the case of “RFX2 (peptide sequence: VLVQAASSNPK, peptide start residue: 32) (UniProt P48378)” it was 0.173. Regarding “ARFIP1 (peptide sequence: IEYDAYR, peptide start residue: 265) (UniProt P53367)”, the log2 fold change turned out to be 0.21. Regarding “EIF2B2 (peptide sequence: IESFVETLKR, peptide start residue: 15) (UniProt P49770)”, the log2 fold change was determined as 0.351. In the case of “PPP5C (peptide sequence: AKDYENAIK, peptide start residue: 41) (UniProt P53041)” it was 0.135. In the case of “UniProt P54368 (peptide sequence: WCSDAPHPPLKIPGGR, peptide start residue: 66)” it was 0.197; in that of “PDLIM4 (peptide sequence: LYCESHAK, peptide start residue: 300) (UniProt P50479)”, 0.169; in that of “GDI2 (peptide sequence: KNDIYGED, peptide start residue: 438) (UniProt P50395)”, -0.152. Then “CLCN3 (peptide sequence: MESEQLFHR, peptide start residue: 1) (UniProt P51790)”, with -0.105; and “SEPHS1 (peptide sequence: YGEGHQAWIIGIVEK, peptide start residue: 345) (UniProt P49903)”, with 0.224; and “PREP (peptide sequence: AFVEAQNK, peptide start residue: 41) (UniProt P48147)”, with -0.158.

Regarding “RAB27A (peptide sequence: FITTVGIDFR, peptide start residue: 38) (UniProt P51159)”, the log2 fold change was -0.17. Then “VASP (peptide sequence: TPKDESANQEEPEAR, peptide start residue: 284) (UniProt P50552)”, with -0.156. Then “INPP1 (peptide sequence: IFGAAGAGYK, peptide start residue: 284) (UniProt P49441)”, with -0.217.
